Experimental findings from US20090162358A1 are described below.

The chains behind the UniProt entries cited, without tags or fusion partners. Residues count along the entry.
human β-amyloid (Aβ), length not specified (P05067, residues 672-713): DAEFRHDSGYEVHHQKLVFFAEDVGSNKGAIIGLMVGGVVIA
C-terminal biotinylated β-amyloid(1-40) peptide (P05067, residues 672-711): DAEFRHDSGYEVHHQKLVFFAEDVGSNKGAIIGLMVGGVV
UniProt Q60495, residues 672-713: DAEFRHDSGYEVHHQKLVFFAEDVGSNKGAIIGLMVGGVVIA
UniProt P12023, residues 672-713: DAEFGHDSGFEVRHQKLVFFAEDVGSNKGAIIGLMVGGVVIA

The target of assay [1] is N-terminal biotinylated β-amyloid(1-40) peptide (UniProt P05067). Put plainly: FMAT bead immunoassay, culture supernatant.
In assay [2] the target is C-terminal biotinylated β-amyloid(1-40) peptide (UniProt P05067). In words: FMAT bead immunoassay, culture supernatant.
For assay [3], the target named is human β-amyloid (Aβ), length not specified (human) (UniProt P05067). Put plainly: ELISA and SPR (Biacore).
Assay [4] concerns the target guinea pig β-amyloid (in vivo, plasma) (guinea pig) (UniProt Q60495). In words: ELISA of antibody-β-amyloid complexes in guinea pig plasma after i.v. 6F6. Background: An ELISA detects its analyte on a solid surface through an enzyme-linked reagent.
The target in assay [5] is amyloid beta deposited in the retina of cfh-/- mice (mouse) (UniProt P12023). Put plainly: IHC, retina sections, 6F6 at 1 in 4000.
Assay [6] has as its target human β-amyloid (Aβ), length not specified (human) (UniProt P05067). In words: IHC, eye tissue of a human donor.
Assay [7] shares this target. In words: MSD ECL sandwich immunoassay, 6F6 as capture antibody, biotinylated 4G8 as detection antibody.
The target in assay [8] is amyloid beta deposited in the retina of cfh-/- mice (mouse) (UniProt P12023). Put plainly: IHC, retina sections.
Assay [9] has the same target. In words: IHC, retina of six month old cfh-/- mice.
The target in assay [10] is human β-amyloid (Aβ), length not specified (human) (UniProt P05067). Put plainly: protein A immunoprecipitation from TASTPM mouse plasma, Western blot with 6E10. On the technique in general: In western blotting, separated proteins are transferred to a membrane and probed.

No constants are given. Whether binding was seen depends on the method and setting. Some binding calls cover weakened binding; strength is not graded here.

B1: 2C1 mouse monoclonal antibody (antibody, V domains shown)
VH: EVQLQQSGAELVKPGASVKLSCTGSGFNIKVYYVHWLKQLTEQGLEWIGRIDPENGETIYAPKFQDKATLTVDTSSNTAYLQLSSLTSEDTAVYYCVSSGYWGQGTTLTVSS
VL: DIVMTQSAFSNPVTLGTSASISCRSSKSLLHRNGITYLYWYLQKPGQSPQLLIYQMSNLASGVPDRFTSSGSGTDFTLKISRVEAEDVGVYYCAQNLELWTFGGGTKLEIK
B1: the binding result in assay [1] and in [2] was “binds” throughout.

B2: 16D4 mouse monoclonal antibody (antibody, V domains shown)
VH: EVQLQQSGAELVKPGASVKLSCTASGFNIKDYYMHWLKQLTEQGLEWIGRIDPENGETQYAPKFQGKASLTADTSSNTAYLHLSSLTSEDTAVYYCVSSGYWGQGTTLTVSS
VL: DIVMTQAAFSNPVTLGTSASISCRSSKSLLHSNGITYLYWYLQKPGQSPQLLIYQMSNLASGVPDRFSSSGSGTDFTLRISRVEAEDVGVYYCAQNLELWTFGGGTKLEIK
In the case of B2, the binding result in [1] and in assay [2] was “binds” in each case.

B3: 2E11 mouse monoclonal antibody (antibody, V domains shown)
VH: EVQLQQSGAEVVKPGASVKLSCTASGFNIKVYYIHWLKQLTEQGLEWIGRIDPENGETKYVPKFQGKATLTVDTSSNTAYLHLSSLTSEDTGVYYCVTSGYWGQGTTLTVSS
VL: DIVMTQAAFSNPVALGTSASISCRSSKSLLHSNGITYLYWYLQKPGQSPQLLIYQMSNLASGVPDRFSSSGSGTDFTLRISRVEAEDVGVYYCAQNLELWTFGGGTKLEIK
As for B3, the binding result in assay [1] and in assay [2] was “binds” in each case.

B4: chimeric 6F6 antibody (6F6c) (antibody, human IgG1, V domains shown)
VH: EVQLQQSGAELVEPGASVKLSCTGSGFNIKVYYVHWLKQLTEQGLEWIGRIDPENGETIYTPKFQDKATLTVDTSSNTAYLQLSSLTSEDAAVYYCVSSGYWGQGTLVTVSS
VL: DIVMTQSAFSNPVTLGTSASISCRSSKSLLHRNGITYLYWYLQKPGQPPQLLIYQMSNLASGVPDRFTSSGSGTDFTLKISRVEAEDVGVYYCAQNLELWTFGGGTKLEIK
In the case of B4, in assay [3], the binding result is recorded as “binds”.

B5: 6F6 murine monoclonal antibody (antibody, mouse IgG2a, V domains shown)
VH: EVQLQQSGAELVEPGASVKLSCTGSGFNIKVYYVHWLKQLTEQGLEWIGRIDPENGETIYTPKFQDKATLTVDTSSNTAYLQLSSLTSEDAAVYYCVSSGYWGQGTTLTVSS
VL: DIVMTQSAFSNPVTLGTSASISCRSSKSLLHRNGITYLYWYLQKPGQPPQLLIYQMSNLASGVPDRFTSSGSGTDFTLKISRVEAEDVGVYYCAQNLELWTFGGGTKLEIK
On to B5, for which the binding entry in [4], in assay [5], in assay [6], in assay [7], in [8] and in assay [9] was “binds” each time. Further, the binding entry in assay [1], in assay [2] and in [10] was “binds” in each case.

B6: 5C9 mouse monoclonal antibody (antibody, V domains shown)
VH: EVQLQQSGAEFVRPGASVKLSCTASGFNIKTYYIHWLKQRTDQGLEWIGRIDPEDGETKFGPKFRGKATLTADTSSNTASLQLSSLTSEDTGVYYCVTSGYWGQGTTLSVSS
VL: DIVMTQAAFSNPVTLGTSASISCRSSKSLLHSNGITYLYWYLQKPGQSPQLLIYQMSNLASGVPDRFSSSGSGTDFTLRISRVEAEDVGVYYCAQNLELWTFGGGTKLEIK
As to B6, the binding result in [1] and in [2] was “binds” throughout.

B7: 4D4 mouse monoclonal antibody (antibody, V domains shown)
VH: EVQLQQSGAELVEPGASVKLSCTGSGFNIKVYYVHWLKQLTEQGLEWIGRIDPENGETLYTPKFQGKATLTVDTSSNTAYLQLNSLTSEDTAVYYCVSSGYWGQGTSLTVSS
VL: DIVMTQSAFSNPVTLGTSASISCRSSKSLLHRNGITYLYWYLQKPGQSPQLLIYQMSNLASGVPDRFTSSGSGTDFTLKISRVEAEDVGVYYCAQNLELWTFGGGTKLEIK
For B7, the binding result in assay [1] and in assay [2] was “binds” each time.

B8: 5D1 mouse monoclonal antibody (antibody, V domains shown)
VH: EVQLQQSGAELVKPGASVKLSCTGSGFNIKVYYVHWLKQLTEQGLEWIGRIDPENGETKYAPKFQDKATLTVDTSSNTAYLHLSSLTSEDTAVYYCVSSGYWGQGTTLTVSS
VL: DIVMTQSAFSNPVTLGTSASISCRSSKSLLHRNGITYLYWYLQKPGQSPQLLIYQMSNLASGVPDRFTSSGSGTDFTLKISRVEAEDVGVYYCAQNLELWTFGGGTKLEIK
Turning to B8, the binding entry in assay [1] and in assay [2] was “binds” each time.

B9: 14B3 mouse monoclonal antibody (antibody, V domains shown)
VH: EVQLQQSGAELVEPGASVKLSCTGSGFNIKVYYVHWLKQLTEQGLEWIGRIDPENGETLYTPKFQGKATFTVDTSSNTAYLQLSSLTSEDTAVYYCVSSGYWGQGTTLTVSS
VL: DIVMTQSAFSNPVTLGTSASISCRSSKSLLHRNGITYLYWYLQKPGQSPQLLIYQMSNLASGVPDRFTSSGSGTDFTLKISRVEAEDVGVYYCAQNLELWTFGGGTKLEIK
With B9, the binding result in assay [1] and in [2] was “binds” throughout.
